Assay results: patent US12723078
Positions count from the first letter of the chain named. In names and notes the source's numbering stands. These are yes or no findings as the source states them, for the method shown. Some binding calls cover weakened binding; strength is not graded here.

Amino acid sequences for entries named in this document (tags omitted). A change or cut given only in a name is not applied to a line headed by its entry. Residues count along the entry.
UniProt Q8NHL6: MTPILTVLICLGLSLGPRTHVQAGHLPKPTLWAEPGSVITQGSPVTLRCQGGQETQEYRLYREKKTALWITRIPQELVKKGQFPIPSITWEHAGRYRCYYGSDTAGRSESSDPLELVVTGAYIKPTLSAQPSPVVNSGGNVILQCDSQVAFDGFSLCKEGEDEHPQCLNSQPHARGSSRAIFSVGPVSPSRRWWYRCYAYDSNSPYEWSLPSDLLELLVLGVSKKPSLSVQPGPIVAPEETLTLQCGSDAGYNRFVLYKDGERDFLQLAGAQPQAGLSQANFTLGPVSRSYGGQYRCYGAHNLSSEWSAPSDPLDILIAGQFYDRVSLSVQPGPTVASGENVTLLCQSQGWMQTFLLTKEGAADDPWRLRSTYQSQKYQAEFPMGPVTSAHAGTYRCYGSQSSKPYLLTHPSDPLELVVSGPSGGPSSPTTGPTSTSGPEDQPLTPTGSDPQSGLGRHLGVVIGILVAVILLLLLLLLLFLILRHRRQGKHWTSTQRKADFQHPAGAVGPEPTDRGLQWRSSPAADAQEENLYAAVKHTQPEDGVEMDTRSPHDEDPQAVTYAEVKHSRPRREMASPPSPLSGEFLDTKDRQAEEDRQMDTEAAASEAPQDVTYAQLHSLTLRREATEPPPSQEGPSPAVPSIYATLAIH
UniProt Q8N149, residues 24-449: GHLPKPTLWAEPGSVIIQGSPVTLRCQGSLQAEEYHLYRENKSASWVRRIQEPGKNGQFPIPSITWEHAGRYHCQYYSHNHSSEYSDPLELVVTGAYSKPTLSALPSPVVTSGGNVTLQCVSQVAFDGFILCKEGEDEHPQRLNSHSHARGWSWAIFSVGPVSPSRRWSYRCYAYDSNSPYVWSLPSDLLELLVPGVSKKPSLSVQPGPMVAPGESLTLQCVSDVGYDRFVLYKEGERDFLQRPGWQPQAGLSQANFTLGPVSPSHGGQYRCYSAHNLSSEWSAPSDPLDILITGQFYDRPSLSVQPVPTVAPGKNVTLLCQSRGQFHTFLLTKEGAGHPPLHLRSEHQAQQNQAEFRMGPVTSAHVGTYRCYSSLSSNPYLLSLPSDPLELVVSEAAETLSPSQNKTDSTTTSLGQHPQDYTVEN
UniProt Q8N6C8, residues 24-439: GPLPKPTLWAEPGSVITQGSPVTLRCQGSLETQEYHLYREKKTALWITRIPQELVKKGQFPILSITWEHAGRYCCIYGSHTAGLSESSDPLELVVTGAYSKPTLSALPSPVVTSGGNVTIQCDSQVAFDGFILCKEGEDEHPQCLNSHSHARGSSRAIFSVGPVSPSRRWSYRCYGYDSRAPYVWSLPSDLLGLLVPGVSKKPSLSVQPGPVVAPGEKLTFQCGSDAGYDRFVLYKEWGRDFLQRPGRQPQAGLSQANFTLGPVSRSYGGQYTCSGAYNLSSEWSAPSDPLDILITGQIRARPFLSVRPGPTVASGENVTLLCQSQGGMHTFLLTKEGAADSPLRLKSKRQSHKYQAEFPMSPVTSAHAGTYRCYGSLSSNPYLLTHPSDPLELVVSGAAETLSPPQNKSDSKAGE
UniProt P59901, residues 24-446: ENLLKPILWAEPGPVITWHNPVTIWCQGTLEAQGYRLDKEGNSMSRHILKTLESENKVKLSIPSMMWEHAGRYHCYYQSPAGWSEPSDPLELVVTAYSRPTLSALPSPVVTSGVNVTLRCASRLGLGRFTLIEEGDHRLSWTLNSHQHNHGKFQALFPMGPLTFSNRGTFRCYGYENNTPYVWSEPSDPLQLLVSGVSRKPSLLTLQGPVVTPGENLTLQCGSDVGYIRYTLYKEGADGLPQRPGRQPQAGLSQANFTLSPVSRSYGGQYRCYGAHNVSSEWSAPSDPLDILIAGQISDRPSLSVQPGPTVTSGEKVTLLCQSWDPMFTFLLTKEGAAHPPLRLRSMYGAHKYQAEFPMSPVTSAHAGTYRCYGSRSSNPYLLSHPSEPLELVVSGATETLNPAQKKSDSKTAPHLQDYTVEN
UniProt A6NI73, residues 42-268: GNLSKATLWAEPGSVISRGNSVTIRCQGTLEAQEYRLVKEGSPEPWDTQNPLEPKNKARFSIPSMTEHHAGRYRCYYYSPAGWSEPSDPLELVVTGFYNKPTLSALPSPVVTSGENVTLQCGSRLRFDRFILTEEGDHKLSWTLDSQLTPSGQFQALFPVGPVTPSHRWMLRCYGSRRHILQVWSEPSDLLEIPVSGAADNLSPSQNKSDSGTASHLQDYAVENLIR
UniProt Q6PI73, residues 24-447: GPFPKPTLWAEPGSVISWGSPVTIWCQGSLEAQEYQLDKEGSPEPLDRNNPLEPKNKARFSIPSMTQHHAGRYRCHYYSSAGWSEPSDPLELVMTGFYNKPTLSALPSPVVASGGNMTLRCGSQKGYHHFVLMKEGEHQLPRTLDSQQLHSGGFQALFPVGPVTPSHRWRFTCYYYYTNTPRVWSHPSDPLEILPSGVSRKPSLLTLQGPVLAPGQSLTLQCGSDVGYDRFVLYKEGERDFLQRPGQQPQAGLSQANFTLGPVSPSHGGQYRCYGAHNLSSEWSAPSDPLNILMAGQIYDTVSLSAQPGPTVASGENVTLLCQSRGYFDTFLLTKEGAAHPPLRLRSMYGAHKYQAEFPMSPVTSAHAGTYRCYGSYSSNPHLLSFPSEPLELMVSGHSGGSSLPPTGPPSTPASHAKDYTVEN
UniProt Q8N423, residues 22-460: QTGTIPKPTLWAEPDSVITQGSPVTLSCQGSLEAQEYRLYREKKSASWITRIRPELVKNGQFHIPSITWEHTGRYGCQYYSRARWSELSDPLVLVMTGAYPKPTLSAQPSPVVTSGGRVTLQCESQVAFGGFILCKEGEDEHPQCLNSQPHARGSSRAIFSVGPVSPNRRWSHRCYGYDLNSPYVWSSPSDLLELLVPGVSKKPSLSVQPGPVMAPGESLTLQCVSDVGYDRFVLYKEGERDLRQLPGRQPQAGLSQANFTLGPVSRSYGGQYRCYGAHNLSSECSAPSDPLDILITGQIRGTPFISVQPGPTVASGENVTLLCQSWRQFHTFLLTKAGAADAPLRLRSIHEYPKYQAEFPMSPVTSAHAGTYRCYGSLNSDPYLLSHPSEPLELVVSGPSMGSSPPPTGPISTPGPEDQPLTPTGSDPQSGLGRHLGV
UniProt Q8NHJ6, residues 22-259: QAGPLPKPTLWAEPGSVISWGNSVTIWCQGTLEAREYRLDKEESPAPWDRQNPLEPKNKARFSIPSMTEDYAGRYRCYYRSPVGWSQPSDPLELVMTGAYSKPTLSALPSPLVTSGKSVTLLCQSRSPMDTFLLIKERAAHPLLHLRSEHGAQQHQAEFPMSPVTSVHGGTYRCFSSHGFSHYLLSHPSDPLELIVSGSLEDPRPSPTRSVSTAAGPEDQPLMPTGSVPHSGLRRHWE

B1: Rab-VH & Hu-VL (antibody, V domains shown)
VH: QSLEESEGGLVKPGGTLTLTCTASGFSFSSSYCMCWVRQAPGKGLELIACIYTDSSGATYYASWAKGRFTISKSSSTTITLQMTSLTAADTATYFCARGWDYEDPGYTDTTYFSLWGPGTLVTVSS
VL: DIQLTQSPSFLSASVGDRVTITCQASQTIYTNLAWYQQKPGKAPKLLIYAASTLASGVPSRFSGSGSGTEFTLTISSLQPEDFATYYCQSYYGSSTTGNGFGGGTKVEIK
B2: Hu B1-176-LALAPG (antibody, V domains shown)
VH: EVQLVESGGGLVQPGGSLRLSCAASGFSFSSSYCMCWVRQAPGKGLELVSCIYTDSSGATYYASWAKGRFTISRHNSKNTLYLQMNSLRAEDTAVYYCARGWDYEDPGYTDTTYFSLWGRGTLVTVSS
VL: B1 VL
B3: Hu B1-176-N297A (antibody, V domains shown)
VH: B2 VH
VL: B1 VL
B4: B1-#190 (antibody, V domains shown)
VH: QEQLKESGGDLVKPEGSLTLTCTASGFSFSSDYWVCWVRQAPGKGPEWIGCIYTGDDDTYYASWAKGRFTISKTSSTTVTLEVTSLTAADTATYFCARGLTIGTAELYFWGPGTVVTVSS
VL: ELVLTQTPSPVSAAVGGTVTINCQASQSISNELSWYQQKPGQPPKLLIYLASTLDSGVPSRFKGSGSGTQFTLTISDLECADAATYYCQSHYYGGSSDYGWAFGGGTEVVVK
B5: B1-#204 (antibody, V domains shown)
VH: B1 VH with L3V, E4K, E7G
VL: ELDMTQTPSSVEAAVGGTVTIKCQASQTIYTNLAWYQQKPGQPPNLLIYAASTLASGVSSRFKGSGSGTEFTLTISDLECADAATYYCQSYYGSSTTGNGFGGGTEVEIN
B6: B1-#3 (antibody, V domains shown)
VH: QSLEESEGDLVKPEGSLTLTCKASGFDFSSDAMCWVRQAPGKGLEWIGCIYNGDEITDHASWAKGRFTISKTSPTTVTLQMTSLTVADTATYFCARAVYSDGGAGYPYMYGMDLWGPGTLVTVSS
VL: ELDMTQTPASVEAAVGGTVTIKCQASQNIYSYLVWYQQKPGQPPKLLISKASTLASGVSSRFKGSGSGTEFTLTINDLECADAATYYCQTNYFSSTSHFGVFTFGGGTELEIK
B7: B1-#5 (antibody, V domains shown)
VH: EQSLEESGGDLVKPEGSLTLTCTASELSFSSAYYMCWVRQAPGKGLEWIGCIYSGDGDTYYANWAKGRFTISKTSSTTVTLQMTSLTDADTATYFCARALDSHYSSFDLWGPGTLVTISS
VL: ELDMTQTPSSVSAAVGDTVTIKCQASQSIYRYLAWYQQKPGQRPSLLIYYGSDLASGVPSRFSGSGSGTEFTLTISDLECADAASYYCQTTYDDYHNGWAFGGGTNVEIN

Molecular target: recombinant human LILRB1 protein (human) (UniProt Q8NHL6)
Test: ELISA

Row | Binder | binding
1 | B1 | binds
2 | B2 | binds

Molecular target: recombinant human LILRB1 protein (human) (UniProt Q8NHL6)
Test: Octet RED96 or ELISA

Row | Binder | binding
3 | B2 | binds
4 | B3 | binds

Molecular target: LILRA2 (human) (UniProt Q8N149)
Test: Octet RED96, cross-reactivity table

Row | Binder | binding
5 | B4 | no binding (tested: not given)
6 | B5 | no binding (tested: not given)
7 | B6 | no binding (tested: not given)
8 | B7 | no binding (tested: not given)

Molecular target: LILRA3 (human) (UniProt Q8N6C8)
Test: Octet RED96, cross-reactivity table

Row | Binder | binding
9 | B4 | no binding (tested: not given)
10 | B5 | no binding (tested: not given)
11 | B6 | no binding (tested: not given)
12 | B7 | no binding (tested: not given)

Molecular target: LILRA4 (human) (UniProt P59901)
Test: Octet RED96, cross-reactivity table

Row | Binder | binding
13 | B4 | no binding (tested: not given)
14 | B5 | no binding (tested: not given)
15 | B6 | no binding (tested: not given)
16 | B7 | no binding (tested: not given)

Molecular target: LILRA5 (human) (UniProt A6NI73)
Test: Octet RED96, cross-reactivity table

Row | Binder | binding
17 | B4 | no binding (tested: not given)
18 | B5 | no binding (tested: not given)
19 | B6 | no binding (tested: not given)
20 | B7 | no binding (tested: not given)

Molecular target: LILRA6 (human) (UniProt Q6PI73)
Test: Octet RED96, cross-reactivity table

Row | Binder | binding
21 | B4 | no binding (tested: not given)
22 | B5 | no binding (tested: not given)
23 | B6 | no binding (tested: not given)
24 | B7 | no binding (tested: not given)

Molecular target: LILRB2 (human) (UniProt Q8N423)
Test: Octet RED96, cross-reactivity table

Row | Binder | binding
25 | B4 | no binding (tested: not given)
26 | B5 | no binding (tested: not given)
27 | B6 | no binding (tested: not given)
28 | B7 | no binding (tested: not given)

Molecular target: LILRB3
Test: Octet RED96, cross-reactivity table

Row | Binder | binding
29 | B4 | no binding (tested: not given)
30 | B5 | no binding (tested: not given)
31 | B6 | no binding (tested: not given)
32 | B7 | no binding (tested: not given)

Molecular target: LILRB4 (human) (UniProt Q8NHJ6)
Test: Octet RED96, cross-reactivity table

Row | Binder | binding
33 | B4 | no binding (tested: not given)
34 | B5 | no binding (tested: not given)
35 | B6 | no binding (tested: not given)
36 | B7 | no binding (tested: not given)

Molecular target: LILRB5
Test: Octet RED96, cross-reactivity table

Row | Binder | binding
37 | B4 | no binding (tested: not given)
38 | B5 | no binding (tested: not given)
39 | B6 | no binding (tested: not given)
40 | B7 | no binding (tested: not given)
